Reference: PubChem BioAssay AID1259354 (Paczesny and Yang Labs, IUPUI and University of Michigan, 2018)
Values joined by “and” are separate entries in the source; they are usually repeats but may differ in a detail not shown here. Equal values may be shown once. In all, about 78,000 compounds went through this assay and about 1,800 (2.3%) were called active. The shares of active, inactive and inconclusive entries below differ from those in the screen. No stated cut-off is given here; in the data, active means inhibition above about 30%; inconclusive means mostly about 10% to 28%; inactive means weaker than that.

Sequences of proteins named here, by UniProt entry; tags and fusion partners are left off. A change or cut given only in a name is not applied to a line headed by its entry.
UniProt Q01638: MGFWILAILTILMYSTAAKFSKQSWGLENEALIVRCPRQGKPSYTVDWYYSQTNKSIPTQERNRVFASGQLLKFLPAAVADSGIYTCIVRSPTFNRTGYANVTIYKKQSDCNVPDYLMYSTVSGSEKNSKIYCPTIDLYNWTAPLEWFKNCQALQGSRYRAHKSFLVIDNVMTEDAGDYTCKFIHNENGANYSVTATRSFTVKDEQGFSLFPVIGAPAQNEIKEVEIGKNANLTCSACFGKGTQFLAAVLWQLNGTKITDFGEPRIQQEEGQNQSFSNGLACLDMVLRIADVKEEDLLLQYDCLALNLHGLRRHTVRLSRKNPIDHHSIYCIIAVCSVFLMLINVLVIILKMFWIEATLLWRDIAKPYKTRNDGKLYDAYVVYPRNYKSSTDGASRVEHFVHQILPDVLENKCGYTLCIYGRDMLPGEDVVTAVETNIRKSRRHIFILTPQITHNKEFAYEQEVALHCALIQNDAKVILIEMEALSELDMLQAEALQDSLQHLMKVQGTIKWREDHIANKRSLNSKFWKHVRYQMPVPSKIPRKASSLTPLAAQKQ

The compounds below were run against Interleukin-1 receptor-like 1 (Homo sapiens) (UniProt Q01638) (assay: blocks human ST2 binding to IL-33, primary screen, biochemical, AlphaLISA (AID 1259354)). Conditions: AlphaLISA ST2-Fc/biotin-IL-33 interaction, 1 h; at 17 µM, active compounds read high.

Row | SMILES | inhibition
1 | Oc1oc(-c2ccc(Br)cc2)nc1C=Nc1ccccc1Cl | inactive
2 | Nc1nc(CSc2nnnn2-c2ccc(F)c(Cl)c2)nc(N2CCOCC2)n1 | inconclusive: 17%
3 | CCC(C)N(Cc1cccnc1)C(=O)c1ccc2nc(C)[nH]c2c1 (stereo not drawn) | inconclusive: 23%
4 | COc1ccccc1Nc1ncnc2sc(C)c(S(=O)(=O)N3CCC(C)CC3)c12 | inactive
5 | COc1cc(C)c(C(=O)NC2C(C)OC(OC3CCC(C)C4C3C=C(C)C3/C(C)=C/CC/C(C)=C/C5(C)C=C(C(=O)O)C(C)CC56OC(=O)C(=C(O)C34C)C6=O)C(O)C2(C)O)c(O)c1 (stereo not drawn) | inconclusive: 17%
6 | NC(=O)c1ccc(N=c2oc3ccccc3cc2C(=O)Nc2ccccc2)cc1 | inconclusive: 29%
7 | Cc1ccc(C)c(N(C)C(=O)CCS(=O)(=O)c2cccc3nonc23)c1 | inconclusive: 12%
8 | COC(=O)c1ccn(-c2nc(-c3cccc(OC)c3)cc(C(F)(F)F)n2)n1 | inconclusive: 11%
9 | Nc1cc(C(=O)O)ccc1NC1CCCCC1 | active: 31%
10 | Cc1nn(-c2ccccc2)c(C)c1[C@@H]1C=C[C@@H](NC(=O)c2ccc(N(C)C)cc2)C1 | inconclusive: 10%
11 | Cc1noc(C)c1CN(C)Cc1cccn1S(=O)(=O)c1ccccc1 | inactive
12 | O=C(c1ccc2c(c1)OCO2)N1CCN(Cc2ccc3c(c2)OCO3)CC1 | inconclusive: 28%
13 | Cc1ccc(NC(=O)Cn2nc([N+](=O)[O-])nc2Br)cc1C | inconclusive: 13%
14 | O=C(CNCC1CCCO1)Nc1sc2c(c1C(=O)Nc1ccc(Br)cc1)CCC2 (stereo not drawn) | inactive
15 | O=C(COc1ccc([N+](=O)[O-])cc1)Nc1ccc(F)cc1 | inconclusive: 18%
16 | C/C(Cl)=C\CN1C(=O)C(=O)c2cccc(C)c21 | active: 54%
17 | CCOC(=O)Cn1c(=O)n(-c2ccc(F)cc2)c2nc(-c3cccc(OC)c3)nc(C(N)=O)c21 | inactive
18 | COc1cccc(C(=O)N2CCN(Cc3cnn(C)c3C3CC3)CC2)c1 | inconclusive: 18%
19 | Cc1ccc(C(=O)O[C@@H](C(=O)O)[C@@H](OC(=O)c2ccc(C)cc2)C(=O)O)cc1 (tested in a mixture with another compound) | inconclusive: 13%
20 | Cc1cccc(C)c1-c1ccc(-c2nn[nH]n2)cc1 | inactive

Row | SMILES | inhibition
21 | COc1cc(C)c(C(C)C)cc1S(=O)(=O)n1cnc2ccccc21 | inactive
22 | Cc1ccc(S(=O)(=O)N=C2C=CC(=O)c3ccccc32)c(C)c1 | active: 61%
23 | CC(=O)c1ccc(NC(=O)c2ccc(-c3ccccc3)cc2)cc1 | active: 30%
24 | Cc1csc(NC(=O)c2cccc(CN3CC[C@H](O)C3)c2)n1 | inconclusive: 14%
25 | O=C(Nc1ccc(N=Cc2c(O)cccc2Cl)cc1)c1ccc(F)cc1 | inconclusive: 27%
26 | CCn1c(=O)c(-c2ccc3ccccc3n2)cc2cc(Br)ccc21 | active: 36%
27 | O=c1/c(=C/c2cccnc2)sc2n1CN(c1cccc([N+](=O)[O-])c1)CN=2 | inconclusive: 18%
28 | O=[N+]([O-])c1ccc(CN2CCN(c3ncccn3)CC2)s1 | inactive
29 | COc1cc(C(=O)NCc2n[nH]c(=S)n2-c2cccc(C)c2)cc(OC)c1OC | inactive
30 | CC(C)N1C(=O)CCC1C(=O)NCc1cccs1 (stereo not drawn) | inconclusive: 16%
31 | NCCCNc1nc(-c2ccccc2O)nc2ccccc12 | inactive
32 | O=C(CSCCc1ccncc1)Nc1nccs1 | inconclusive: 12%
33 | Cc1cc(-c2cc3c(n(Cc4cccnc4)c2=O)CCN(C(=O)c2nonc2C)C3)ccc1F | inactive
34 | CN(CC1COCCO1)S(=O)(=O)NCc1ccccc1 (stereo not drawn) | inactive
35 | CC(=O)c1ccc(C(=O)N2CCCC(Nc3ccc4c(c3)OCCO4)C2)s1 (stereo not drawn) | inconclusive: 21%
36 | COCc1ccc(C(=O)N2CCc3c(c(C(=O)O)nn3CC3CC3)C2)o1 | inconclusive: 13%
37 | C=C1C(C)(C)[C@H]2CC[C@]1(C(=O)N1CCC(n3cc(CCCC)nn3)CC1)C2 | inconclusive: 19%
38 | O=C(O)CC1CCCc2ccccc2C1O (stereo not drawn) | inconclusive: 12%
39 | c1cncc(-c2nc3c(c(NCCN4CCOCC4)n2)CCNC3)c1 | inconclusive: 15%
40 | Cc1nc(C(F)(F)F)nc(N2C[C@H]3C[C@H](O)[C@H](O)C[C@H]3C2)c1C | inconclusive: 14%

An excerpt from above in order of molar mass, ascending:
Row | SMILES | inhibition
28 | O=[N+]([O-])c1ccc(CN2CCN(c3ncccn3)CC2)s1 | inactive
40 | Cc1nc(C(F)(F)F)nc(N2C[C@H]3C[C@H](O)[C@H](O)C[C@H]3C2)c1C | inconclusive: 14%
35 | CC(=O)c1ccc(C(=O)N2CCCC(Nc3ccc4c(c3)OCCO4)C2)s1 (stereo not drawn) | inconclusive: 21%

The results go on.

Row | SMILES | inhibition
41 | O=C(c1cc2c(s1)CCCCC2)N1CC[C@H](O)[C@@H](O)C1 | inactive
42 | CN(C)c1ccc(C(=O)N[C@H]2C[C@@H](c3nc(-c4cccnc4)no3)N(C)C2)cc1 | active: 58%
43 | COc1ccc(C2SCCN2S(=O)(=O)c2ccc(-c3ccccc3)cc2)cc1[N+](=O)[O-] (stereo not drawn) | inactive
44 | CCOC(=O)C1C(=O)C=C(c2ccc(OC)cc2)CC1c1cccc(OC)c1OC (stereo not drawn) | inactive
45 | Cc1ccc(NCC(O)Cn2c(C)c(C)c3ccccc32)c(C)c1 (stereo not drawn) | inconclusive: 21% and inconclusive: 12%
46 | CC(=O)N[C@H]1CC[C@]2(C)CCC([C@H](C)C(=O)NCc3ccc(F)cc3)[C@H](O)[C@H]2[C@@H]1C (stereo partly drawn) | inconclusive: 13%
47 | Cc1nnc(Nc2ccc(C(C)C)cc2)[nH]c1=O | inactive
48 | CCN(CC)C(=O)C1CCCN(Cc2sccc2C)C1 (stereo not drawn) | inconclusive: 12%
49 | CCCN(CCC)C(=O)Cn1c(=O)n(-c2ccc(F)cc2F)c(=O)c2sccc21 | inconclusive: 22%
50 | CCC(C)Nc1nc2c(C)cccn2c(=O)c1C=Nc1ccc(OC)cc1 (stereo not drawn) | inconclusive: 21%
51 | Cc1nn(CCCC(=O)Nc2cccnc2)c(C)c1[N+](=O)[O-] | inconclusive: 10%
52 | Cc1nc(N2CCCCCCC2)ncc1C(C)NCc1ccsc1 (stereo not drawn) | inconclusive: 11%
53 | Cc1ccc2cccc(SCc3nc(N)nc(Nc4ccccc4)n3)c2n1 | inactive
54 | CCc1cn[nH]c1C1CCCN(C(=O)C(=O)Nc2cccc(F)c2)C1 (stereo not drawn) | inconclusive: 15%
55 | COc1ccc(CC(=O)Nc2ccccc2Cl)cc1 | inactive
56 | COc1ccc(-c2cc(OC)c3c(C)oc(C)c3c(=O)c2)cc1 | inconclusive: 22%
57 | COc1cccc(CN(C)C2CCN(C)CC2)c1 | inconclusive: 12%
58 | Cc1nc(C)c(-c2csc(Nc3ccc(Br)cc3)n2)s1 | inconclusive: 18%
